# From the supplement of paper PMC8728848
# This is one part of the list.
# B1: SspB (Streptococcus gordonii), P16952 (protein)
# chain: MKNKKEVYGFRKSKVAKTLCGAVLGTALIAFADKAVFADEVTETTSTSTVEVATTGNPATNLPEAQGEMSQVAKESQAKAGSKESALPVEVSSADLDKAVADAKSAGVKVVQDETKDKGTATTATDNAQKQDEIKSDYAKQAEEIKTTTEAYKKEVAAHQAETDKINAENKAADDKYQKDLKSHQEEVEKINTANATAKAEYEAKLAQYQKDLATVKKANEDSQQDYQNKLSAYQTELARVQKANAEAKEAYEKAVKENTAKNEALKVENEAIKQRNETAKATYEAAMKQYEADLAAIKKANEDNDADYQAKLAAYQTELARVQKANAEAKEAYDKAVKENTAKNTAIQAENEAIKQRNETAKATYDAAVKKYEADLAAVKQANATNEADYQAKLAAYQTELARVQKANADAKATYEKAVEDNKAKNAAIKAENEEIKQRNAVAKTDYEAKLAKYEADLAKYKKEFAAYTAALAEAESKKKQDGYLSEPRSQSLNFKSEPNAIRTIDSSVHQYGQQELDALVKSWGISPTNPDRKKSRAYSYFNAINSNNTYAKLVLEKDKPVDVTYTGLKNSSFNGKKISKVVYTYTLKETGFNDGTKMTMFASSDPTVTAWYNDYFTSTNINVKVKFYDEEGQLMNLTGGLVNFSSLNRGNGSGAIDKDAIESVRNFNGRYIPISGSSIKIHENNSAYADSSNAEKSLGARWNTSEWDTTSSPNNWYGAIVGEITQSEISFNMASSKSGNIWFAFNSNINAIGVPTKPVAPTAPTQPMYETEKPLEPAPVAPSYENEPTPPVKTPDQPEPSKPEEPTYETEKPLEPAPVAPSYENEPTPPVKTPDQPEPSKPEEPNYETEKPLEPAPVAPSYENEPTPPVKIPDQPEPSKPEEPTYDPLPTPPLAPTPKQLPTPPVVPTVHFHYSSLLAQPQINKEIKNEDGVDIDRTLVAKQSIVKFELKTEALTAGRPKTTSFVLVDPLPTGYKFDLDATKAASTGFDTTYDEASHTVTFKATDETLATYNADLTKPVETLHPTVVGRVLNDGATYTNNFTLTVNDAYGIKSNVVRVTTPGKPNDPDNPNNNYIKPTKVNKNKEGLNIDGKEVLAGSTNYYELTWDLDQYKGDKSSKEAIQNGFYYVDDYPEEALDVRPDLVKVADEKGNQVSGVSVQQYDSLEAAPKKVQDLLKKANITVKGAFQLFSADNPEEFYKQYVATGTSLVITDPMTVKSEFGKTGGKYENKAYQIDFGNGYATEVVVNNVPKITPKKDVTVSLDPTSENLDGQTVQLYQTFNYRLIGGLIPQNHSEELEDYSFVDDYDQAGDQYTGNYKTFSSLNLTMKDGSVIKAGTDLTSQTTAETDATNGIVTVRFKEDFLQKISLDSPFQAETYLQMRRIAIGTFENTYVNTVNKVAYASNTVRTTTPIPRTPDKPTPIPTPKPKDPDKPETPKEPKVPSPKVEDPSAPIPVSVGKELTTLPKTGTNDATYMPYLGLAALVGFLGLGLAKRKED
# How the values were obtained:
# Test in all cases: glycan array binding signal (z-score within array); higher = stronger binding
# Conditions in all cases: glycan notation: IUPAC condensed, linker removed
# [1] = target: Gal(b1-3)GlcNAc(b1-2)Man(a1-3)[Gal(b1-3)GlcNAc(b1-2)Man(a1-6)]Man(b1-4)GlcNAc(b1-4)[Fuc(a1-6)]GlcNAc
# In short: (§1)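 The binding signal is a Z-score computed within each array. Data were drawn from 3228 arrays in the Consortium for Functional Glycomics database, restricted to those with a known protein sequence. Scores were averaged over arrays of the same protein sequence at different concentrations or buffers, and over linkers, and negative values can be taken as non-binding.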
# [2] = target: Gal(b1-3)GlcNAc(b1-3)Gal(b1-3)GlcNAc
# In short: as §1
# [3] = target: Gal(b1-3)GlcNAc(b1-3)Gal(b1-4)Glc
# In short: as §1
# [4] = target: Gal(b1-3)GlcNAc(b1-3)Gal(b1-4)GlcNAc
# In short: as §1
# [5] = target: Gal(b1-3)GlcNAc(b1-3)Gal(b1-4)GlcNAc(b1-6)[Gal(b1-3)GlcNAc(b1-3)]Gal(b1-4)Glc
# In short: as §1
# [6] = target: Gal(b1-3)GlcNAc(b1-3)Gal(b1-4)[Fuc(a1-3)]GlcNAc(b1-6)[Gal(b1-3)GlcNAc(b1-3)]Gal(b1-4)Glc
# In short: as §1
# [7] = target: Gal(b1-3)GlcNAc(b1-3)GalNAc
# In short: as §1
# [8] = target: Gal(b1-3)GlcNAc(b1-6)Gal(b1-4)GlcNAc
# In short: as §1
# [9] = target: Gal(b1-3)[Fuc(a1-4)]GlcNAc
# In short: as §1
# [10] = target: Gal(b1-3)[Fuc(a1-4)]GlcNAc(b1-2)Man(a1-3)[Gal(b1-3)[Fuc(a1-4)]GlcNAc(b1-2)Man(a1-6)]Man(b1-4)GlcNAc(b1-4)GlcNAc
# In short: as §1
# [11] = target: Gal(b1-3)[Fuc(a1-4)]GlcNAc(b1-2)Man(a1-3)[Gal(b1-3)[Fuc(a1-4)]GlcNAc(b1-2)Man(a1-6)]Man(b1-4)GlcNAc(b1-4)[Fuc(a1-6)]GlcNAc
# In short: as §1
# [12] = target: Gal(b1-3)[Fuc(a1-4)]GlcNAc(b1-3)Gal(b1-3)[Fuc(a1-4)]GlcNAc
# In short: as §1
# [13] = target: Gal(b1-3)[Fuc(a1-4)]GlcNAc(b1-3)Gal(b1-4)GlcNAc
# In short: as §1
# [14] = target: Gal(b1-3)[Fuc(a1-4)]GlcNAc(b1-3)Gal(b1-4)[Fuc(a1-3)]GlcNAc
# In short: as §1
# [15] = target: Gal(b1-3)[GlcNAc(b1-6)]GalNAc
# In short: as §1
# [16] = target: Gal(b1-3)[Neu5Ac(a2-6)]GalNAc
# In short: as §1
# [17] = target: Gal(b1-3)[Neu5Ac(a2-6)]GlcNAc(b1-6)Gal(b1-4)Glc
# In short: as §1
# [18] = target: Gal(b1-3)[Neu5Ac(b2-6)]GalNAc
# In short: as §1
# [19] = target: Gal(b1-4)GalNAc(a1-3)[Fuc(a1-2)]Gal(b1-4)GlcNAc
# In short: as §1
# [20] = target: Gal(b1-4)GalNAc(b1-3)[Fuc(a1-2)]Gal(b1-4)GlcNAc
# In short: as §1
# [21] = target: Gal(b1-4)Glc
# In short: as §1
# [22] = target: Gal(b1-4)Glc6S
# In short: as §1
# [23] = target: Gal(b1-4)GlcNAc
# In short: as §1
binder,measurement,setting,value
B1,glycan array binding signal (z-score),[1],2.19
same,glycan array binding signal (z-score),[2],-0.283
same,glycan array binding signal (z-score),[3],-0.986
same,glycan array binding signal (z-score),[4],-1.18
same,glycan array binding signal (z-score),[5],1.98
same,glycan array binding signal (z-score),[6],1.07
same,glycan array binding signal (z-score),[7],1.02
same,glycan array binding signal (z-score),[8],0.13
same,glycan array binding signal (z-score),[9],-1.32
same,glycan array binding signal (z-score),[10],-1.27
same,glycan array binding signal (z-score),[11],1.17
same,glycan array binding signal (z-score),[12],0.033
same,glycan array binding signal (z-score),[13],-0.661
same,glycan array binding signal (z-score),[14],-0.848
same,glycan array binding signal (z-score),[15],-0.255
same,glycan array binding signal (z-score),[16],-1.48
same,glycan array binding signal (z-score),[17],0.473
same,glycan array binding signal (z-score),[18],-0.113
same,glycan array binding signal (z-score),[19],-0.819
same,glycan array binding signal (z-score),[20],-0.894
same,glycan array binding signal (z-score),[21],-0.34
same,glycan array binding signal (z-score),[22],-0.905
same,glycan array binding signal (z-score),[23],-1.08

# Random excerpt: 2 entries already listed.
binder,measurement,setting,value
B1,glycan array binding signal (z-score),[17],0.473
same,glycan array binding signal (z-score),[13],-0.661
